From patent US20190359666A1
Results are given in words; binding and its absence hold for the method and conditions named. Some entries that bind do so weakly or less than the wild type.

Protein sequences, listed by entry. Tags and fused reporters are not part of them. Residues count along the entry.
UniProt P17936, residues 28-291: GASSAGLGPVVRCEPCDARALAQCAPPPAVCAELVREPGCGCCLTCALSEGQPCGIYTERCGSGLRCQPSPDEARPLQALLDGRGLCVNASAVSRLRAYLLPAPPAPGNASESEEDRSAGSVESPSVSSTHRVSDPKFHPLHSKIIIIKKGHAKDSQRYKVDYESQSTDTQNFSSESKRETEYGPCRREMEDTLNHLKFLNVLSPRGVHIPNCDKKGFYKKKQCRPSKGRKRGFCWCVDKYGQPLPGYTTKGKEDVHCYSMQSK

Biological target: T1, nrgbx (UniProt Q02297)
T1 sequence (looked up): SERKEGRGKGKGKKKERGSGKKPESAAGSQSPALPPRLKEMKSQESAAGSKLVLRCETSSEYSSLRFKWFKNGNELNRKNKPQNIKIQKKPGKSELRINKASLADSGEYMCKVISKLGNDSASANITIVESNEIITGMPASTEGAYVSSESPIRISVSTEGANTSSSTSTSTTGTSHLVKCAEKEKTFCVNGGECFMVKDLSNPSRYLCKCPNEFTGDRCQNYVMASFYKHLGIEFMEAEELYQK
Assay: summary of the foregoing examples; method not given

- binding: binds
Substance: wild-type IGFBP3 (from UniProt P17936 28-291)
